From paper PMC5855875 (Chemical Science, 2017) come the findings set out here.

This data set in a line: general procedure: Fmoc solid-phase peptide synthesis; 2-Chlorotrityl chloride resin (manufacturer's loading 1.2 mmol/g; determined loading 0.6 mmol/g); DIC/Oxyma (microwave); HATU/DIPEA; DIC/DMAP for esterification; HATU/DIPEA for c. To be noted: whole synthesis, overall, scale of the general procedure 0.102 mmol (170 mg resin).
D-Ala5-Arg10-teixobactin displayed an isolated yield of 11%.

In the case of Ac-D-Ala1-Arg10-texiobactin, the isolated yield is listed as 12%.

The substance D-Ala4-Arg10-teixobactin gave an isolated yield of 12%.

In turn, Ala7-Arg10-teixobactin had an isolated yield of 12%.

Ala6-Arg10-teixobactin had an isolated yield of 12%.

In turn, Ala3-Arg10-teixobactin yielded an isolated yield of 11%.

Ala2-Arg10-teixobactin showed an isolated yield of 10%.
